No constants are given. Whether binding was seen depends on the method and setting. Binding seen in cells or lysates may run through a third protein. Some results given as binding are weak or reduced against the parent protein; the word gives no strength. Tags and fused reporters may be left off the sequences shown.
Target: T1, endogenous tra2-beta1 (UniProt P62995)
T1 sequence (looked up): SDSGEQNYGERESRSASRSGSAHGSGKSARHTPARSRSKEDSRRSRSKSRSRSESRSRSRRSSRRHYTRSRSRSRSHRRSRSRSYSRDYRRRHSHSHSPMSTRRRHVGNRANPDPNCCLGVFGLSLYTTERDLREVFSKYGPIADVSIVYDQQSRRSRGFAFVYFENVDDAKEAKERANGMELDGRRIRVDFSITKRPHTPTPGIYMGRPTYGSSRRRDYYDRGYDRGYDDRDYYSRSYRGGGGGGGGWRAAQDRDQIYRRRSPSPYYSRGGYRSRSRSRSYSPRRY
Experiment: co-immunoprecipitation (anti-GFP), reblot with anti tra2-beta1 (Figure 1C)

B1: EGFP-tra2-beta1 (protein, UniProt P62995 1-288, looked up, not shown: large carriers)
chain: MSDSGEQNYGERESRSASRSGSAHGSGKSARHTPARSRSKEDSRRSRSKSRSRSESRSRSRRSSRRHYTRSRSRSRSHRRSRSRSYSRDYRRRHSHSHSPMSTRRRHVGNRANPDPNCCLGVFGLSLYTTERDLREVFSKYGPIADVSIVYDQQSRRSRGFAFVYFENVDDAKEAKERANGMELDGRRIRVDFSITKRPHTPTPGIYMGRPTYGSSRRRDYYDRGYDRGYDDRDYYSRSYRGGGGGGGGWRAAQDRDQIYRRRSPSPYYSRGGYRSRSRSRSYSPRRY
Question: Which binding does the source give for B1 here?
Answer: binds
